Laboratory results taken from US12220466B2, “Pharmaceutical formulation” (Cutting Edge Technology, LLC, priority 2016, dated 2025).
For at least one compound, name, drawing or mass did not settle the structure.

Test system: periodontitis
Assay: Extensive in vivo administration of viscous tetracycline and 10% carbamide peroxide gel with mechanical debridement (Phase I-III)
Settings: applied to extraction sockets, pockets or dental implant sites

SMILES: CN(C)[C@@H]1C(O)=C(C(N)=O)C(=O)[C@@]2(O)C(O)=C3C(=O)c4c(O)cccc4[C@@](C)(O)[C@H]3C[C@@H]12 [tetracycline]
- bleeding: no bleeding
- healing: fast healing without morbidity or complications
- pain: rarely reported any pain
- swelling: no swelling
